Results on one compound are retold here after US20240199626A1, “COMPOUNDS WITH IMPROVED CARDIAC SAFETY FOR THE TREATMENT OF CANCER AND NEURODEGENERATIVE DISORDERS” (priority 2021, published 2024).

For the experiment, the system named is K-562 cells. As to the kind of experiment: Cell viability / growth inhibition (AlamarBlue), K-562. Type of experiment: cell-based. The note with it: Homo sapiens, K562; Table 5; ± SD. How it is done:
K562 and K562-T315I: The Leukemia cell lines K562 were purchased and maintained as recommended by ATCC (Manassas, VA, USA). Briefly, K562 cells were cultured in suspension in RPMI1640 (ThermoFisher Scientific, USA) supplemented with 10% fetal bovine serum and Pen/Strep/L-Glutamine. […] Briefly, one million K562 cells were seeded in 6-well plates and transfected with Lipofectamine 2000 and 1 μg of CRISPR/Cas9 vector (pSpCas9(BB)-2A-GFP) incorporating the guide sequence ([…]), and Lipofectamine RNAiMax and 4 μg of ssDNA donors (1ug of each donor, Supplementary Table 1) for each well of a 6-well plate.
The effects of the compounds on cell viability were evaluated using the AlamarBlue assay using the NCI60 methodology.^57 Cells were harvested and plated in 384-well plates (Greiner μClear) at a concentration of 1250 cells/well in 40 μL, and incubated for 24 h at 37° C. The next day, test compounds were added to the cells as a 2×40μL solution, and incubated for 48 h at 37° C.
Background: Resazurin is reduced to fluorescent resorufin, in cell work by metabolically active cells.

As usually defined, the IC50 is the concentration at which inhibition is half-maximal. The compound `Cc1ccc(NC(=O)c2ccc(CN3CCN(C)CC3)cc2)cc1Nc1nccc(-c2cccnc2)n1` [Imatinib] came in with a half-maximal inhibitory concentration (IC50) of 563 nM.
